System: tumor tissue samples
Experiment: Identification and relative quantitation of HLA-presented tumor associated peptides by LC-MS (presentation profile)
Design: species or system human
Settings: HLA-A*02 cancer tissues vs HLA-A*02 normal samples (N=469 normal, N=528 tumor); FIGS. 1C-1D

Row | Substance | over-presentation of peptide in cancer tissues compared to normal samples
1 | SEQ ID NO.: 129 (VLYDKDAVYV; listed as Homo sapiens) | over-presentation
2 | SEQ ID NO.: 130 (NLWGGQGLLGV; listed as Homo sapiens) | over-presentation

Same assay, conditions: HLA-A*24 cancer tissues vs HLA-A*24 normal samples (N=19 normal, N=94 tumor); FIGS. 1A-1B

Row | Substance | over-presentation of peptide in cancer tissues compared to normal samples
3 | SEQ ID NO.: 62 (LYQEILAQL; listed as Homo sapiens) | over-presentation

Same assay, conditions: cancer entities on which the tumor-associated peptide was found presented (HLA ligandome LC-MS); abbreviations per table footnote

Row | Substance | Peptide Presentation on cancer entities
4 | 292 (SPQRLRGLLL; listed as Homo sapiens) [compound 292] | NHL
5 | 64 (NYAIFDEGHML; listed as Homo sapiens) [compound 64] | GBM, GC
6 | 383 (RYKQDVERF; listed as Homo sapiens) [compound 383] | AML, MEL, OC, PRCA, UEC
7 | 421 (LTELLERAAFY; listed as Homo sapiens) [compound 421] | GC, MEL, NHL, UEC
8 | 11 (YYSKSVGFMQW; listed as Homo sapiens) [compound 11] | MEL, OC, UEC
9 | 32 (SLPDLTPTF; listed as Homo sapiens) [compound 32] | PRCA
10 | 473 (LPRALLSSL; listed as Homo sapiens) [compound 473] | NHL, OC
11 | 400 (ATDISRQNEY; listed as Homo sapiens) [compound 400] | GBM, GC, NHL, OC
12 | 468 (SPMYGQAGL; listed as Homo sapiens) [compound 468] | RCC
13 | 290 (APYRPPDISL; listed as Homo sapiens) [compound 290] | BRCA
14 | 177 (SSDEVNFLVY; listed as Homo sapiens) [compound 177] | GC, MEL, OC, UEC
15 | 110 (LLADFQALL; listed as Homo sapiens) [compound 110] | RCC
16 | 281 (RPRAPVTPA; listed as Homo sapiens) [compound 281] | GBM
17 | 126 (FLSTVTSV; listed as Homo sapiens) [compound 126] | CCC, GBM, HCC, HNSCC, MEL, NHL, OSCAR, PACA, RCC, UBC, UEC
18 | 100 (RQYPTPFQL; listed as Homo sapiens) [compound 100] | AML, CLL, CRC, GBM, NHL, OC, RCC
19 | 483 (EENDQSTHKW; listed as Homo sapiens) [compound 483] | MEL, NHL, OC, RCC, UEC
20 | 438 (STDNFNCKY; listed as Homo sapiens) [compound 438] | GC, HCC, MEL
21 | 106 (FIIDTTYPAYV; listed as Homo sapiens) [compound 106] | CRC, OC, OSCAR
22 | 211 (TVNPVAIHK; listed as Homo sapiens) [compound 211] | GBM, NHL, OC, PRCA, UEC
23 | 487 (AEDQLHHSF; listed as Homo sapiens) [compound 487] | AML, NHL
24 | 76 (WYGWHFPEL; listed as Homo sapiens) [compound 76] | AML, GC, HCC, RCC, UEC
25 | 156 (LLDSLREQY; listed as Homo sapiens) [compound 156] | GC, NHL, OSCAR

Row | Substance | Peptide Presentation on cancer entities
26 | 381 (TYSKKHFRI; listed as Homo sapiens) [compound 381] | MEL, OC
27 | 82 (RFLPSPVVI; listed as Homo sapiens) [compound 82] | AML, GC, HCC, MEL, PRCA, UEC
28 | 57 (YPSIIQEF; listed as Homo sapiens) [compound 57] | GBM, RCC
29 | 409 (FVDPLVTNY; listed as Homo sapiens) [compound 409] | GBM, GC, HCC, MEL, NHL, OC, OSCAR, PRCA, RCC
30 | 419 (LSELKPMSY; listed as Homo sapiens) [compound 419] | GBM, GC, HCC, MEL, OSCAR, PRCA, RCC, UEC
31 | 129 (VLYDKDAVYV; listed as Homo sapiens) [compound 129] | AML, CLL, CRC, HNSCC, NHL, OC, UBC, UEC
32 | 167 (QSDPGTSVLGY; listed as Homo sapiens) [compound 167] | GBM
33 | 78 (TWFPKTPMLF; listed as Homo sapiens) [compound 78] | AML, GBM, GC, HCC, MEL, UEC
34 | 91 (FALPGLLHA; listed as Homo sapiens) [compound 91] | GC, HCC, NHL, OSCAR, RCC
35 | 420 (LTEDKETLQY; listed as Homo sapiens) [compound 420] | GC, HCC, MEL, NHL, PRCA
36 | 441 (TLDSALNAASYY; listed as Homo sapiens) [compound 441] | GBM, GC, MEL, NHL, PRCA, RCC
37 | 377 (VYVGAVNRI; listed as Homo sapiens) [compound 377] | GC, HCC, PRCA
38 | 284 (FPVTSIFHTF; listed as Homo sapiens) [compound 284] | MEL, OC, UEC
39 | 191 (VTDGSLYEGVAY; listed as Homo sapiens) [compound 191] | GC, MEL, UEC
40 | 450 (YSDDGQKWTVY; listed as Homo sapiens) [compound 450] | MEL
41 | 111 (ALCLLLHLL; listed as Homo sapiens) [compound 111] | AML, GBC, HCC, HNSCC, RCC
42 | 117 (FLDPNARPLV; listed as Homo sapiens) [compound 117] | NHL, OC
43 | 131 (LLKEFVQRV; listed as Homo sapiens) [compound 131] | BRCA, CRC, HCC, HNSCC, OC, OSCAR
44 | 469 (YPENGVVQM; listed as Homo sapiens) [compound 469] | AML, OC
45 | 437 (STDGKHWWEY; listed as Homo sapiens) [compound 437] | GC, MEL, NHL, PRCA
46 | 318 (EAAIRSVEL; listed as Homo sapiens) [compound 318] | GBM, MEL, NHL, OC
47 | 72 (RYEGILYTI; listed as Homo sapiens) [compound 72] | GC, HCC, NHL, PRCA

Row | Substance | Peptide Presentation on cancer entities
48 | 458 (GIADFVLKY; listed as Homo sapiens) [compound 458] | AML, BRCA, GBM, MEL, NHL, UEC
49 | 86 (FVIDGFDEL; listed as Homo sapiens) [compound 86] | CRC, GC, NHL, OSCAR
50 | 321 (AEMLESVIKNY; listed as Homo sapiens) [compound 321] | NHL
51 | 413 (ISDRYYTALY; listed as Homo sapiens) [compound 413] | GBM, GC, PRCA, UEC
52 | 152 (HTDSLHLLI; listed as Homo sapiens) [compound 152] | GC, MEL, OC
53 | 406 (ETEQTKFWDY; listed as Homo sapiens) [compound 406] | GBM, GC, MEL, OC, RCC, UEC
54 | 24 (MYPDLSELLM; listed as Homo sapiens) [compound 24] | AML, GBM, OC, UEC
55 | 41 (VIYFMGAIF; listed as Homo sapiens) [compound 41] | HCC, PRCA, UEC
56 | 9 (RILRFPWQL; listed as Homo sapiens) [compound 9] | MEL
57 | 219 (RLRSSLVFK; listed as Homo sapiens) [compound 219] | UEC
58 | 237 (RPAATAVISL; listed as Homo sapiens) [compound 237] | GBM, NHL, OC
59 | 101 (FIISDWRFVL; listed as Homo sapiens) [compound 101] | HNSCC
60 | 282 (MPQIETRVIL; listed as Homo sapiens) [compound 282] | UEC
61 | 66 (IYFRDSSFL; listed as Homo sapiens) [compound 66] | AML, GC, MEL
62 | 472 (NPRATDAQL; listed as Homo sapiens) [compound 472] | AML
63 | 422 (MIDVTKSYY; listed as Homo sapiens) [compound 422] | GBM, GC, MEL, NHL, OC, OSCAR, PRCA, UEC
64 | 372 (TEGIIMKDF; listed as Homo sapiens) [compound 372] | OC, PRCA, RCC, UEC
65 | 456 (SMFTAILKK; listed as Homo sapiens) [compound 456] | AML, MEL, NHL, OC, UEC
66 | 3 (YLEKFYGL; listed as Homo sapiens) [compound 3] | HCC
67 | 116 (VLMEENSKL; listed as Homo sapiens) [compound 116] | GBM
68 | 184 (TSAHPEDSSFY; listed as Homo sapiens) [compound 184] | GC, NHL, PRCA

Reference: patent publication US11292821B2, “Peptides and combination of peptides for use in immunotherapy against lung cancer, including NSCLC, SCLC and other cancers” (Immatics Biotechnologies GmbH, priority 2017, dated 2022)
